Data: the supplement of paper PMC10849652
Some of the results follow.

Protein sequences, listed by entry. Tags and fused reporters are not part of them. Lines headed by an entry give the natural chain unless they say otherwise; changes in a name come on top.
UniProt Q5U649: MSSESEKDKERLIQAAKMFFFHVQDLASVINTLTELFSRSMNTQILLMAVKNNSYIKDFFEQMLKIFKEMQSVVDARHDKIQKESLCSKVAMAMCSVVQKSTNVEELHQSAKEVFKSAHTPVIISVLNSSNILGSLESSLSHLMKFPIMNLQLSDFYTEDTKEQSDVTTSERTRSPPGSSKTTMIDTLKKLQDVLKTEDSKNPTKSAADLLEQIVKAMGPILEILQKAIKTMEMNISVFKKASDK
UniProt Q99622: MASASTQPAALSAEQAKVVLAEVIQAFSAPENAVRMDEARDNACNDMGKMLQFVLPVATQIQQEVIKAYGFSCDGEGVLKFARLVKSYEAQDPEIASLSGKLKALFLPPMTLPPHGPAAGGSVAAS
UniProt Q16581: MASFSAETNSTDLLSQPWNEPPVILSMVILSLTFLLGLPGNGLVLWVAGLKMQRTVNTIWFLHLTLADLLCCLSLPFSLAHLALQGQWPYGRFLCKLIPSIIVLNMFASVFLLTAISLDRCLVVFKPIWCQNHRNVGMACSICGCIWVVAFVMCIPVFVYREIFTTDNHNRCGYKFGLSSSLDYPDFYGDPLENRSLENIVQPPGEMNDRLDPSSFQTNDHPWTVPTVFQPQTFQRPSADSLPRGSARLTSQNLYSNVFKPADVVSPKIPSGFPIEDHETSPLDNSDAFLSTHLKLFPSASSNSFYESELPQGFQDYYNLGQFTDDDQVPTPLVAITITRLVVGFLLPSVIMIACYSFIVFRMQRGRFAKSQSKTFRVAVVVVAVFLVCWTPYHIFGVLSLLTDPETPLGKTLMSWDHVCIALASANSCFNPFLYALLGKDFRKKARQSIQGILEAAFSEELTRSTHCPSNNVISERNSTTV
UniProt Q9H6X5: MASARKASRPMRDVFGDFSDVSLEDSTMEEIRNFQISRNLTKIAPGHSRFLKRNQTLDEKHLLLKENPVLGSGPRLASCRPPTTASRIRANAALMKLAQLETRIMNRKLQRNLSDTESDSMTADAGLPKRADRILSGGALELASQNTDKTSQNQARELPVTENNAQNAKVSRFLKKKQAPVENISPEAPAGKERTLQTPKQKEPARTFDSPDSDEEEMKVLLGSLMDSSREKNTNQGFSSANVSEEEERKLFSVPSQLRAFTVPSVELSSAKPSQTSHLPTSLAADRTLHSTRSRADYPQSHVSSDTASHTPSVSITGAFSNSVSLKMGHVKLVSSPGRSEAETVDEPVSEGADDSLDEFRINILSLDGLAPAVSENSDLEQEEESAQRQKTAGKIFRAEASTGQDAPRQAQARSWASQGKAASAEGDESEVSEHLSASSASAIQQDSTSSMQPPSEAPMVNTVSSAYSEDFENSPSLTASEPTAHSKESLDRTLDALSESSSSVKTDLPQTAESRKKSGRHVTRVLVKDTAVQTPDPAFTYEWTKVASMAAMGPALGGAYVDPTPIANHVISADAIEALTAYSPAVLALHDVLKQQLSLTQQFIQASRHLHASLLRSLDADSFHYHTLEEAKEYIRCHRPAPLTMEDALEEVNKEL
UniProt Q9NX04: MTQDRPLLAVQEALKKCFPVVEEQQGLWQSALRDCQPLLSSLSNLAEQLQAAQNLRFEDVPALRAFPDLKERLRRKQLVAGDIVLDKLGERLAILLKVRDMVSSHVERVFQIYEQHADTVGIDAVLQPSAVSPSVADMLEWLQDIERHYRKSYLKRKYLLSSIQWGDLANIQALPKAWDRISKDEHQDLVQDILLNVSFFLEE
UniProt Q13137: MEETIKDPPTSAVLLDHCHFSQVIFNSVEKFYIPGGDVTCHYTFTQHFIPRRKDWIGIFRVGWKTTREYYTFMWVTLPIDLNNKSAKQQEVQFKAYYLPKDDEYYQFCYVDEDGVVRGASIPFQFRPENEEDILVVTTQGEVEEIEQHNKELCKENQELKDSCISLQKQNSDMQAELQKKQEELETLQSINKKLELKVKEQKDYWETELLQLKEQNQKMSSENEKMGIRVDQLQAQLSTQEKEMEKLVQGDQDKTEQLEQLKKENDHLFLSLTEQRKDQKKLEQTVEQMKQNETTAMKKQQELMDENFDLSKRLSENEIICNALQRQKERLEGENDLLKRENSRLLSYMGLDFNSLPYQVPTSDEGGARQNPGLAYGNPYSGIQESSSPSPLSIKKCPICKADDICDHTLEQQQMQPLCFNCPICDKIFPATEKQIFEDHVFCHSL
UniProt Q9BX69: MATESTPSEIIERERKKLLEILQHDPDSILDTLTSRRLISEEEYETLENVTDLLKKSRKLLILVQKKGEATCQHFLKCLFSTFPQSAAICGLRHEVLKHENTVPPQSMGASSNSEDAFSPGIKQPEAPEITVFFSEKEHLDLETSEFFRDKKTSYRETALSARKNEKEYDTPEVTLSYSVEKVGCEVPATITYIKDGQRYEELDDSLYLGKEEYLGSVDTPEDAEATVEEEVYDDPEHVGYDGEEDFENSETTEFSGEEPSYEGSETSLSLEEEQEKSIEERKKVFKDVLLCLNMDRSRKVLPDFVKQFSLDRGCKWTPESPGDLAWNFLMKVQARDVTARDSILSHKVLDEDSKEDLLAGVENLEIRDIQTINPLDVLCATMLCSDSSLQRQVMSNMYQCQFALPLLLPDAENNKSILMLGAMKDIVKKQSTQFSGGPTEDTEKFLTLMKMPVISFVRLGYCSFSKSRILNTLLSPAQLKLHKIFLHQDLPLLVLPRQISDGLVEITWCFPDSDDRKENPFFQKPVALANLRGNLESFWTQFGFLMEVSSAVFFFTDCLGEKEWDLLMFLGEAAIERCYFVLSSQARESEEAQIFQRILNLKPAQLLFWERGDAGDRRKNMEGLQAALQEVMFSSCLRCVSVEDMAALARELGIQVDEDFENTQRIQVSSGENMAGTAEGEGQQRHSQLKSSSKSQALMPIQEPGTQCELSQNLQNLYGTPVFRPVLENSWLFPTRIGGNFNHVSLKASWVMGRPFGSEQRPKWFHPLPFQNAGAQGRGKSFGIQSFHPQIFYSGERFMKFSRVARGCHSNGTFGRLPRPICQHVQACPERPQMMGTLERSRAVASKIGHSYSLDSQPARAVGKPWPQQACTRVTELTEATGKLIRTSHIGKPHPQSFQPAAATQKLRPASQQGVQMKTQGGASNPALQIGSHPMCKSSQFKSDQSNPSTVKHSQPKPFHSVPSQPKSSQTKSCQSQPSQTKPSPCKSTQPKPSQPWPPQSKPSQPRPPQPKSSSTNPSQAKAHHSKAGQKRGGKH
UniProt Q9NSK7: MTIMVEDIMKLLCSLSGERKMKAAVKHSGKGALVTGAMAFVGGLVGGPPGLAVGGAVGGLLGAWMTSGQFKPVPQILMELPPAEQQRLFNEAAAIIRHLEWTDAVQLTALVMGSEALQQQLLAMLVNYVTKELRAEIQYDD

compound: COc1cc2ncnc(Nc3ccc(F)c(Cl)c3)c2cc1OCCCN1CCOCC1 [gefitinib]; experiment: log2 fold change, soluble protein after heating vs DMSO (PISA); higher = thermal stabilisation; K562 lysate, 10 uM; active = over 0.2 and 3.5 SD of the protein, either way, in both replicates (recomputed)
How it was run: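 Quantification was by TMTpro 16plex LC-MS/MS with equalised channel sums, applied to the supernatant after 21,000xg for 90 min. Samples were crude K562 extract at 1 mg/mL protein in PBS pH 7.4 with 1 mM MgCl2, treated with 10 μM compound for 30 min, heated for 3 min across 48°C-58°C, pooled and brought to 0.5% NP-40 at 4°C. Values are log-two fold changes in thermal stability relative to solvent controls, from duplicates.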

log2 fold change, inactive:
CAMKMT (UniProt Q7Z624) -0.188
C12orf60 (UniProt Q5U649) 0.02
C12orf57 (UniProt Q99622) -0.195
CAND1 (UniProt F5H6I6) -0.061
C3AR1 (UniProt Q16581) 0.053
C19orf44 (UniProt Q9H6X5) 0.119
C1orf109 (UniProt Q9NX04) -0.041
CALCOCO2 isoform 5 (UniProt Q13137) 0.183
CALR (UniProt K7EJB9) -0.03
CA2 (UniProt P00918) 0.04
CANX (UniProt D6RHJ3) -0.242
CARD6 (UniProt Q9BX69) -0.288
C19orf12 (UniProt Q9NSK7) -0.066
CAPNS1 (UniProt U3KPR7) 0.165

A portion from further up, as a working copy:
log2 fold change, inactive:
CA2 (UniProt P00918) 0.04
CANX (UniProt D6RHJ3) -0.242
CARD6 (UniProt Q9BX69) -0.288
C19orf12 (UniProt Q9NSK7) -0.066
